In paper doi:10.1101/2025.04.15.648887:
Results are given in words; binding and its absence hold for the method and conditions named. In cells and extracts the contact can be indirect. A yes stands for co-enrichment or nearness to the bait. Other partners may have been found.

Biological target: YTHDF3 (rat (endogenous in H9c2))
Assay: affinity purification with mass spectrometry

binding: binds
B1: DDX5 (protein, UniProt Q6AYI1 1-615)
chain: MSSYSSDRDRGRDRGFGAPRFGGSRTGPLSGKKFGNPGEKLVKKKWNLDELPKFEKNFYQEHPDLARRTAQEVDTYRRSKEITVRGHNCPKPVLNFYEANFPANVMDVIARQNFTEPTAIQAQGWPVALSGLDMVGVAQTGSGKTLSYLLPAIVHINHQPFLERGDGPICLVLAPTRELAQQVQQVAAEYCRACRLKSTCIYGGAPKGPQIRDLERGVEICIATPGRLIDFLECGKTNLRRTTYLVLDEADRMLDMGFEPQIRKIVDQIRPDRQTLMWSATWPKEVRQLAEDFLKDYIHINIGALELSANHNILQIVDVCHDVEKDEKLIRLMEEIMSEKENKTIVFVETKRRCDELTRKMRRDGWPAMGIHGDKSQQERDWVLNEFKHGKAPILIATDVASRGLDVEDVKFVINYDYPNSSEDYIHRIGRTARSTKTGTAYTFFTPNNIKQVSDLISVLREANQAINPKLLQLVEDRGSGRSRGRGGMKDDRRDRYSAGKRGGFNTFRDRENYDRGYSSLLKRDFGAKTQNGVYSAANYTNGSFGSNFVSAGIQTSFRTGNPTGTYQNGYDSTQQYGSNVANMHNGMNQQAYAYPATAAAAPMIGYPMPTGYSQ
